No constants are given. Whether binding was seen depends on the method and setting. Binding seen in cells or lysates may run through a third protein. Some entries that bind do so weakly or less than the wild type. Each block holds one molecule with its values, some of them ahead of it.
Legend:
[1] = target: T1, CCDC53 (Drosophila (endogenous in S2 cells)) (UniProt Q9VLT8); test: co-IP; lysates of transfected S2 cells; IP with anti-CCDC53 antibody; 40 min at room temperature; immunoblot for the HA-tagged Wash variants
T1 sequence: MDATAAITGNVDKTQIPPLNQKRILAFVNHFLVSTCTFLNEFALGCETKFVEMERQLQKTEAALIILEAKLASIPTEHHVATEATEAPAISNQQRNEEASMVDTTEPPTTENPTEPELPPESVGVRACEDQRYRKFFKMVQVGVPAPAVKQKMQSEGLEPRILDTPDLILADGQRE

The chains behind the UniProt entries cited, without tags or fusion partners. Where a name states a change or a piece, a line headed by the entry shows the natural chain unless it says otherwise.
UniProt Q7JW27: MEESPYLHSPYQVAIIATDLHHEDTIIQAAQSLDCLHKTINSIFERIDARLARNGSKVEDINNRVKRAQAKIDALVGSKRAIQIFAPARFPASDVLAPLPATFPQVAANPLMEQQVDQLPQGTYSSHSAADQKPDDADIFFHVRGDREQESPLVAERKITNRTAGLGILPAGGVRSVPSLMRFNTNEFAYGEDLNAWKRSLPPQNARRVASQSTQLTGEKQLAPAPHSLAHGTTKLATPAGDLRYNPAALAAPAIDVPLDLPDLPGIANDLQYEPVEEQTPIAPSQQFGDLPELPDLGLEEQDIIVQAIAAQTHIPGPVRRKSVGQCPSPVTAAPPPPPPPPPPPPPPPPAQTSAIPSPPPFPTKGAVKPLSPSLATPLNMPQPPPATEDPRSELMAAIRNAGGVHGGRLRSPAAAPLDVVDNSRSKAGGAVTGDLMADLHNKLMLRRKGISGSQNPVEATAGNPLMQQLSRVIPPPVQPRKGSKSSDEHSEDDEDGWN

[2] = target: WASH (Wiskott–Aldrich syndrome protein and SCAR homologue) (Drosophila (endogenous in embryos)) (UniProt Q7JW27); test: co-IP; lysates of 12-20 h AEL Drosophila embryos (wild type; for the WASH IP also 69B>Btk29A^WT and 69B>Btk29A^KD); anti-Btk29A or anti-WASH antibody or IgG control for 4 h, Protein G sepharose 1 h at 4 °C; washes with 200 mM NaCl; immunoblot
[3] = target: HA-Wash^Y273D (Drosophila) (UniProt Q7JW27); test: co-IP; lysates of transfected S2 cells; IP of the HA-tagged Wash variant with anti-HA; 40 min at room temperature; immunoblot for strumpellin and CCDC53
[4] = target: HA-tagged Wash (Drosophila) (UniProt Q7JW27); test: as above

Molecule: HA-Wash^Y273D (from UniProt Q7JW27 1-499)
binding [1]: binds

B2: CCDC53 (protein, UniProt Q9VLT8 1-176)
chain: T1 sequence
binding [3]: binds | binding [4]: binds

B3: strumpellin (protein, UniProt Q9VUY8 1-1191)
chain: MSFLDDNNACGQNLLNIVSVGNSIIAEILRLKDYVPSIYRLDNKADKAKYGELILDFSYFKIAEDHERRIEQSPELTELDDEARAQLPLITRFYLAFQSIHHYASDLQQYIEELNTGYYIQQTLETVLQEEEGRQLLCESLYLFGVILLMVDFHIPGDVRERLLIAYYRYSGGDATPSGDESNIHDVCLLLRSTGYVHPSIAAKVLGLGGKQAGARAASLVVPRYPEAYFSRFRFDENFVDLVVARLRCDDIYNQLNLYPHPAHRSTALSTQAAMLYVCLYFCPQVLHSQGSQMREIVDKFFCDNWTISVYMGMTVNLVDAWLDFKAARSAIENVISPPAIKALCQQQKEQLGKITQKTQEIVREGVLNDNFVLEHANKIIHLMRQSNVLLRWFCLHTSREVFIFAHTATLTGQVQKCVLHELQFNRNTLYNLLLNCSQMELSVREFLAEIQQTKEERWTKSREEAMQRLNELSEAFAGSRPLSKIEQNPQLQQWFGEVAGRLQKLELSRPQKSGRLIIQVMQALDDVQEYHNLHSNMLVKQQLQETRDMLNQMAQLINLKEDIEIHIQMITDFSYAWHLLQFDFTPPMQEHIKRQPQAVIGIRAVFLKLASTLEVPLMRINQARSEDLVSVSNYYSTELANFLRRVLQIVPETMFSILAKIIYLLTNVIKEFPTKVEKERLKDYAQFEERAKVAQLTNSIAVFTKGILMMKTTLVGVIELDPKQLLEDGIRKELVNHLANAYNLGLIFTPEKGKTPVQLLQQKLQALAKTIEGYRRSFEYIEDYLRVQGLRILLEESQRIINYNVEKECNAFLRNKVQEFQSEHQSQIIPIPNFPPLLGDPSNNFIGRLAHEILRCTDPKQTIFLDLKSTWYEKKAPHQEVLAGSGFFEILREALAPAGMVGLERLYAHMLADELKRNLERLQRNLTSDRMWVDTLAALTRELEARDFPTPEVSKQPLKYYQAYTQRWLKVWPTLLDWVLCIGQKQLLRREIAGELSFSSKCDAKLLENTADTLNKALLLELSLSKDLCDEKGVVMLTELQETLLYTGNFEPLEQVFLITKNTHNMALFMFLFTIAHLGRMQHSTITDCLLPKSAKDNIDNVPFIVGLVTILQQFHKNVKMLYISYMSQYVVTVSEAQLLDKEILGPEVVTALHFLLAFIRIARLPLGVLEQRIPNIILSEYEYLSTLLK
binding [3]: binds | binding [4]: binds

The remaining lines, values ahead:

binding [1]: binds
Molecule: HA-tagged Wash (from UniProt Q7JW27 1-499)

binding [2]: binds
B1: Btk29A (enzyme, UniProt P08630 1-786)
chain: MMGTKHRNSHVNGSIKSSSSLRSSSKSFQAKMDLMSERLYDVVKSGSMVKRAQNKKRFTPVNYKHRWFELTKRTFSYFDVENVERRRERGRIHLKGVRLVEEATVSGEGGDPFAPDGYPFQVGYCEISASANSHQLENGNGGGSGVGIEGQQSGRAVPQYTLYVIANSEKERSEWIRAIRQVCEDSNTPKSYRYHPGLWSGKKWSCCKGLSRTTFGCRAAAHWREANNNPSNGSSPAQNSTRSISPNSSTTNSQFSLQHNSSGSLGGGVGGGLGGGGSLGLGGGGGGGGSCTPTSLQPQSSLTTFKQSPTLLNGNGTLLDANMPGGIPTPGTPNSKAKDNSHFVKLVVALYPFKAIEGGDLSLEKNAEYEVIDDSQEHWWKVKDALGNVGYIPSNYVKPKALLGLERYEWYVGDMSRQRAESLLKQGDKEGCFVVRKSSTKGLYTLSLHTKVPQSHVKHYHIKQNARCEYYLSEKHCCETIPDLINYHRHNSGGLACRLKSSPCDRPVPPTAGLSHDKWEIHPMELMLMEELGSGQFGVVRRGKWRGSIDTAVKMMKEGTMSEDDFIEEAKVMTKLQHPNLVQLYGVCSKHRPIYIVTEYMKHGSLLNYLRRHEKTLIGNMGLLLDMCIQVSKGMTYLERHNYIHRDLAARNCLVGSENVVKVADFGLARYVLDDQYTSSGGTKFPIKWAPPEVLNYTRFSSKSDVWAYGVLMWEIFTCGKMPYGRLKNTEVVERVQRGIILEKPKSCAKEIYDVMKLCWSHGPEERPAFRVLMDQLALVAQTLTD
